Patent publication US7390837B2, “Germicidal compositions containing phenylmalonaldehyde-type compounds, or mixtures of phenylmalonaldehyde-type compounds and phthalaldehydes, and methods of using such compositions for disinfection or sterilization” (Ethicon, Inc., priority 2004, dated 2008)
Some of these results come from one statement about several compounds together.

System: Mycobacterium terrae bacteria
Experiment: bacterial suspension test
Type: cell-based
Details: about 2.3%, within five minutes, 20° C.
Method: The bacterial suspension test that was employed is described in Section VII.
The solutions were prepared by adding the appropriate amounts of the germicidal compounds to an aqueous solution. Unless otherwise mentioned all concentrations reported herein are expressed in (w/v) %. The pH of the solution was not adjusted. The tests were conducted at a temperature of about 20° C. (room temperature). The results are presented in terms of log reductions/mL. It is understood that these examples, as well as the other examples herein, are to be construed as merely illustrative, and not limiting.
In this test method, 9 mL of the germicide to be tested is placed in a tube, put into a water bath and allowed to come to the desired temperature. One mL of the test organism, including at least 7 logs/mL of Mycobacterium terrae bacteria, is added to the 9 mL of the germicide to be tested. […] It will be appreciated by those skilled in the art that other concentrations may be utilized by proper dilution and accounting.
At appropriate time intervals, 1 mL aliquots of the germicide-cell suspension were removed and added directly into 9 mL of a 1% glycine solution (neutralizer) and mixed thoroughly to neutralize the germicide in the transferred suspension. The glycine solution was prepared from solid glycine, which is available from VWR Scientific Products, among others. […]
The surviving colonies are then counted. […]

Substance: 4-pyridinyl-propanedial
- bacteria of Mycobacterium terrae killed: at least 1×10^4 bacteria
